The source of these data is article PMC3647048.

Amino acid sequences for entries named in this document (tags omitted).
UniProt Q8C735: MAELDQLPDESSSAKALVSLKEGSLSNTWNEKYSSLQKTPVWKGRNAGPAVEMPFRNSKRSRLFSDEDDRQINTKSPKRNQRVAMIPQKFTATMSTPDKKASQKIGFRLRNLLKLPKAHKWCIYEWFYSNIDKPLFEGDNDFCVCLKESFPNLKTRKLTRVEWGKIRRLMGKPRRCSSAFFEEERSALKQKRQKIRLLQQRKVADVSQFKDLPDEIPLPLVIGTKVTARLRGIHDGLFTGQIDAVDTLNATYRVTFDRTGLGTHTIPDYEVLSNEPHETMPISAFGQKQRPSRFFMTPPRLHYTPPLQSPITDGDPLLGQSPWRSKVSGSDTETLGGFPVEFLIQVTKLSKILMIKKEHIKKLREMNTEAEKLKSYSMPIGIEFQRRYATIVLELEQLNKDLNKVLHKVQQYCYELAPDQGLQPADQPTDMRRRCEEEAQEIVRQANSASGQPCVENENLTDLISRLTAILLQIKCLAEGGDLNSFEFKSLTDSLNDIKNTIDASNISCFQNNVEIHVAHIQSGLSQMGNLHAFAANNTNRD
UniProt P48972: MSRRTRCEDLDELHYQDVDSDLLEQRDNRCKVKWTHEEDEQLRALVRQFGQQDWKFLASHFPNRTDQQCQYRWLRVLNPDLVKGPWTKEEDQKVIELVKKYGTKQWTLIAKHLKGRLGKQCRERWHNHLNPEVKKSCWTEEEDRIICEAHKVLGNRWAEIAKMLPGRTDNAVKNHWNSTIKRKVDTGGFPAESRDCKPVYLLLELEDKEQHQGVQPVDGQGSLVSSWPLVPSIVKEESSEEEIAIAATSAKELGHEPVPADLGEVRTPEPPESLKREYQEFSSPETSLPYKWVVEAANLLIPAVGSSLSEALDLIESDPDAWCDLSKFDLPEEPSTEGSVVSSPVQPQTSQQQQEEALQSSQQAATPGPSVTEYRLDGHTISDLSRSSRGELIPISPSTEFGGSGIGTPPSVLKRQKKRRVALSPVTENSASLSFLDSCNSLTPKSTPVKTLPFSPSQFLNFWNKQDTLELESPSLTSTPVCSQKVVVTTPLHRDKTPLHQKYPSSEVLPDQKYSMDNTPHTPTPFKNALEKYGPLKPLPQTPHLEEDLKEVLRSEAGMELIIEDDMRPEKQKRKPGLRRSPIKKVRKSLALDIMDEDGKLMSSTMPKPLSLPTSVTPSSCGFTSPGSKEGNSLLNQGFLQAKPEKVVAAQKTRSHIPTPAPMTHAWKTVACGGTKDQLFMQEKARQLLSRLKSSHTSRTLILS

The assay has as its target LIN9 (mouse (endogenous in E14 ESCs)) (UniProt Q8C735). The assay is described as follows: co-IP; nuclear extracts of mouse ESCs immunoprecipitated with LIN9 antibody (ab62329) overnight at 4°C, Protein-G Dynabeads, washed 5 times with TNN (120 mM NaCl, 0.5% NP40); nonspecific IgG as control; immunoblotting.

No constants are given. Whether binding was seen depends on the method and setting. Binding seen in cells or lysates may run through a third protein. Some entries that bind do so weakly or less than the wild type.

For B-MYB (from UniProt P48972 1-704), the binding entry is on record as “binds”.
